Experimental data from paper PMC10746255.

Molecular target: T1, PhoQ, sensor kinase of the PhoQP two-component system (wild type), fused to the CyaA T25 fragment (E. coli) (UniProt P23837)
T1 sequence: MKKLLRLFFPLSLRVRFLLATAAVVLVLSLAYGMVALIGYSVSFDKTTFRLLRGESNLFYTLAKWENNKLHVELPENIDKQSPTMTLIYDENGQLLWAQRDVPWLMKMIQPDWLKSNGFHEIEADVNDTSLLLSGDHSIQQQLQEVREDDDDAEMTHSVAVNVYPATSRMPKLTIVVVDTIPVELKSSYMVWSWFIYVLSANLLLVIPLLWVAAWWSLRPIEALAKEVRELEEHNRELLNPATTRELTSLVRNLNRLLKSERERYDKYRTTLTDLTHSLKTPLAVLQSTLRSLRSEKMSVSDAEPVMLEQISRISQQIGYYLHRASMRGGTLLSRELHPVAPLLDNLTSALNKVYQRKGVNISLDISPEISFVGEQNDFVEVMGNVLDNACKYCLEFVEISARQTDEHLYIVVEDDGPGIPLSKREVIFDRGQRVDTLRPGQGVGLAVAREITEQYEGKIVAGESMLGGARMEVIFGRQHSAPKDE
Test: two-hybrid; bacterial two-hybrid (CyaA T18/T25 fragments) in cya- E. coli SAM85; T18-MgrB (pUT18C) co-transformed with T25-PhoQ (pAL27); 10 uL culture spotted on LB agar with 1 mM IPTG and 50 ug/mL X-Gal, 37°C ~17 h; blue colonies = interaction, white = no interaction

Row | Substance | binding
1 | MgrB mutant mgrB-ΔA98 (frameshift), fused to the CyaA T18 fragment (from UniProt P64512) | no binding
2 | MgrB mutant mgrB-ΔT100 (frameshift), fused to the CyaA T18 fragment (from UniProt P64512) | no binding

Results are given in words; binding and its absence hold for the method and conditions named. Sequences can lack the tags named with a protein.
